The other results are listed elsewhere or left out. These are further read-outs of the screen, such as a control signal, another cell line or another target. No call is given for them. Compounds called inactive in the main read-out are mostly missing here. The note in brackets gives the kind of curve behind each potency; many fits are weak.
Test: qHTS Assay for Lipid Storage Modulators in Drosophila S3 Cells;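 for cell number change: cells counted by Cell Tracker Red CMTPX staining in the red channel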
Conditions: BODIPY lipid droplet fluorescence, 18-24 h; for cell number change: measured here: cell count max response, cells fed with added oleic acid
Procedure, shortened: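 Drosophila S3 cells got compounds at several concentrations plus oleic acid (400 uM solution). Laser-scanning cytometry with 488 nm excitation read lipid droplets at 500-530 nm and cells at 575-640 nm. Percent activity was relative to 20 uM Triacsin C.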

[1] = measured here: lipid fluorescence (Fed channel) AC50, cells fed with added oleic acid
[2] = measured here: cell number channel AC50, cells fed with added oleic acid

Structure (SMILES) | AC50 [1] | cell number change | AC50 [2]
Nc1ncnc(Nc2cc(Cl)cc(Cl)c2)c1[N+](=O)[O-] | 5.8 µM [rising, single point] |  | 
COc1ccc(-c2nnc(SCc3ccc(C(=O)O)cc3)o2)cc1OC |  | 14.2% | 
CCCOP(=O)(OCCC)C1(Nc2ccc(C)cc2)CCCCC1 |  | 74.9% | 
COc1ccc(C2=Nc3ccc(Br)cc3C(c3ccccc3)N2CC(=O)NN)cc1 (stereo not given) |  | 10.5% | 0.651 µM [rising, full curve, poor fit]
Cc1ccc(CS(=O)(=O)CCC(=O)NCc2ccccc2Cl)cc1 | 29.1 µM [rising, single point] | 5.5% | 
Cc1cccc(/C=N/NC(=O)c2ccccc2OCc2cccc(Br)c2)n1 |  | -21% | 
c1ccc(SCc2cn3cccnc3n2)nc1 | 4.11 µM [falling, single point] |  | 0.0058 µM [falling, full curve, poor fit]
Cc1cc(Cl)c(S(=O)(=O)NCC2CCCO2)cc1OCC(=O)NC1CCCCC1 (stereo not given) | 29.1 µM [rising, single point] |  | 
CCc1cc2c(=O)c(-c3cnn(-c4ccccc4)c3)c(C)oc2cc1OCC(=O)Nc1ccc(F)c(F)c1 |  | -4.78% | 
CCc1ccc(C2NC(=O)c3ccccc3O2)cc1 (stereo not given) | 29.1 µM [rising, single point] | 28.9% | 4.61 µM [rising, full curve, poor fit]
CCOP(=O)(OCC)C1NC(=O)N(c2ccccc2)C1=O (stereo not given) |  | 29.6% | 
CCc1ccc(C(=O)NNC(=O)c2cccc(S(=O)(=O)N3CCN(C)CC3)c2)cc1 |  | -25% | 0.092 µM [falling, full curve, poor fit]
O=C(C1CC1)N1N=C(c2ccc(Br)cc2)CC1(O)C(F)(F)F (stereo not given) | 18.4 µM [falling, single point] | -40.4% | 16.4 µM [falling, single point]
CCOc1ccc(-c2cc(N)n(S(=O)(=O)c3ccc(OC)c(OC)c3)n2)cc1 |  | 43.1% | 23.1 µM [rising, partial curve]
O=C1c2[nH]nc(-c3ccccc3O)c2C(c2cccc(Cl)c2)N1Cc1ccco1 (stereo not given) | 7.31 µM [falling, partial curve] | -63.6% | 32.6 µM [falling, single point]
CCNC(=O)CSc1nnc(CN2CCCCCC2=O)n1-c1ccccn1 |  | -3.52% | 3.26 µM [falling, single point]
O=C1c2cccc3cc([N+](=O)[O-])cc(c23)C(=O)N1CC1CCCO1 (stereo not given) |  | -45.1% | 29.1 µM [falling, single point]
CCN(CC)c1ccc(NC(=O)c2cncc(Br)c2)cc1 | 18.4 µM [rising, partial curve] | 117% | 23.1 µM [rising, single point]

Structure (SMILES) | AC50 [1] | cell number change | AC50 [2]
O=C1CCCc2c1[nH]c1ccc(Br)cc21 | 14.6 µM [falling, partial curve] | -53.7% | 13 µM [falling, partial curve]
CC(C)OCCCNC(=O)c1c(N)n(/N=C/c2cccs2)c2nc3ccccc3nc12 | 2.91 µM [falling, full curve] |  | 5.17 µM [falling, single point]
CCn1c(SCC(=O)NC2=NCCS2)nnc1C(C)NC(=O)c1ccc(Cl)cc1 (stereo not given) | 29.1 µM [falling, single point] | 32.1% | 0.326 µM [rising, full curve, poor fit]
N=C1c2ccccc2CN1NC(=O)c1cccc(S(=O)(=O)N2CCCCC2)c1 | 6.51 µM [rising, single point] | -4.15% | 4.61 µM [rising, partial curve, poor fit]
CCCCCn1c(=O)c(C(=O)OCC)c(Cl)c2ccccc21 | 11.6 µM [rising, partial curve, poor fit] | 24.1% | 
O=C(NCCc1nc2ccccc2[nH]1)/C(=C/c1ccco1)NC(=O)c1ccccc1Br | 0.058 µM [rising, full curve, poor fit] | 20.2% | 
COc1ccc(-n2c(SCC(N)=O)nnc2-c2ccc(NS(=O)(=O)c3ccc(C)cc3)cc2)cc1 | 0.0651 µM [rising, full curve, poor fit] | 37.5% | 29.1 µM [rising, single point]
CCOC(=O)C(C)Sc1nc(-c2ccccn2)ncc1OC (stereo not given) | 1.03 µM [rising, full curve] | -10.3% | 1.03 µM [rising, full curve]
CCOc1ccc(C(=O)c2cnc3ccccc3c2N2CCN(CC)CC2)cc1 |  | 15% | 0.326 µM [rising, full curve, poor fit]
O=c1n(Cc2ccccc2)c2cc(Cl)cnc2n1Cc1ccccc1 | 29.1 µM [rising, single point] |  | 
COc1ccc2cc(CCNC(=O)c3cccs3)c(=O)[nH]c2c1 | 0.731 µM [falling, single point] |  | 
CC(C)C(NS(=O)(=O)c1ccccc1F)C(=O)N1CCc2ccccc2C1 (stereo not given) | 6.51 µM [falling, partial curve, poor fit] | 5.65% | 
COc1cc(OC)cc(C(=O)N[C@H](C(=O)Nc2nc3ccc(S(C)(=O)=O)cc3s2)C(C)C)c1 | 1.84 µM [rising, partial curve, poor fit] | 0.793% | 
CC1CN(C(=O)/C=C/c2ccccc2[N+](=O)[O-])CC(C)O1 (stereo not given) | 0.58 µM [falling, single point] | 0.709% | 
Cc1c(NC(=O)c2ccc(F)cc2)c(=O)n(-c2ccccc2)n1C | 0.0291 µM [rising, full curve] | 22.7% | 
COc1ccc(C(C)=O)cc1CS(=O)(=O)CC(=O)NCCc1c[nH]c2ccccc12 | 2.31 µM [rising, partial curve, poor fit] | -8.77% | 
COC(=O)[C@]1(CC(C)C)N[C@H](c2ccc(-c3ccc(OC)cc3)cc2)[C@@H]2C(=O)N(C)C(=O)[C@@H]21 | 29.1 µM [falling, single point] | 17.4% | 

Another view of two compounds above:
Structure (SMILES)	AC50 [1]	cell number change	AC50 [2]
CCN(CC)c1ccc(NC(=O)c2cncc(Br)c2)cc1	18.4 µM [rising, partial curve]	117%	23.1 µM [rising, single point]
CCCCCn1c(=O)c(C(=O)OCC)c(Cl)c2ccccc21	11.6 µM [rising, partial curve, poor fit]	24.1%	

From PubChem BioAssay AID2685 (National Center for Advancing Translational Sciences (NCATS), 2010)
